# According to the supplement of paper PMC7666118:
# Chains of the proteins cited; added tags and fusions are not shown. Lines headed by an entry give the natural chain unless they say otherwise; changes in a name come on top.
# UniProt P55060: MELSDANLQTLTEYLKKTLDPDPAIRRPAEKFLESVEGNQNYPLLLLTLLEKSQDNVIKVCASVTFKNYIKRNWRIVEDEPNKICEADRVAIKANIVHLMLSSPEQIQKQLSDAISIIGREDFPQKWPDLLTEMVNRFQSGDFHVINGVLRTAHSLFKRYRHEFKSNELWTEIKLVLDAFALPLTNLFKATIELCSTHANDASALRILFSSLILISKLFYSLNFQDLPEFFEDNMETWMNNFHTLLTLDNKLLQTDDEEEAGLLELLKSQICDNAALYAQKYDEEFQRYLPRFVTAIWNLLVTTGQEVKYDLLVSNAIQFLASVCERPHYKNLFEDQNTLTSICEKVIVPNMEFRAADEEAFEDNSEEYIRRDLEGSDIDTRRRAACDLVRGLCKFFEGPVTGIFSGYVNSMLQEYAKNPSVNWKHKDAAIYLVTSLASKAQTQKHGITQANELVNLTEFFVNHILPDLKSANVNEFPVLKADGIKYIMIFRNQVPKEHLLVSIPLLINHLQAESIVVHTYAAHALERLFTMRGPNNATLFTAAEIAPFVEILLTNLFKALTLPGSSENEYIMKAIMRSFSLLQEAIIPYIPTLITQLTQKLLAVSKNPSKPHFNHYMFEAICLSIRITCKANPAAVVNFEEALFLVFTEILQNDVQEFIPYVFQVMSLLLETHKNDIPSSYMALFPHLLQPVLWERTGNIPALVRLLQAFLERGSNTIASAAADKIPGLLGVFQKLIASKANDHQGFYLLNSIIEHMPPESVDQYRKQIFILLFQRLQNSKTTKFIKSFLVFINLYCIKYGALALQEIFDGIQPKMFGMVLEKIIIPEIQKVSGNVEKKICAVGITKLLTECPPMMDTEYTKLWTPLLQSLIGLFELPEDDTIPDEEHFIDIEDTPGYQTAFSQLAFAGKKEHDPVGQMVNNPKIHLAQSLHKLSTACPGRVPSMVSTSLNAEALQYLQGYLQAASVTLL
# UniProt Q16698: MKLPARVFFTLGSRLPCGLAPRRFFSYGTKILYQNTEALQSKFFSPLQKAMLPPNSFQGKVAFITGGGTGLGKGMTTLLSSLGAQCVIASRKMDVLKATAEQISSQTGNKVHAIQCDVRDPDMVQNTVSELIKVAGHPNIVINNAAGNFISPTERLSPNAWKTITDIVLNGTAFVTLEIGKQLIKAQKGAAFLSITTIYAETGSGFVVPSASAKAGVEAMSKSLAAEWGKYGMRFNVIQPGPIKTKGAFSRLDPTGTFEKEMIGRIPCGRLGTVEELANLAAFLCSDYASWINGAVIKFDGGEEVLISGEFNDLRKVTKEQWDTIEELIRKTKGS
# UniProt P31146: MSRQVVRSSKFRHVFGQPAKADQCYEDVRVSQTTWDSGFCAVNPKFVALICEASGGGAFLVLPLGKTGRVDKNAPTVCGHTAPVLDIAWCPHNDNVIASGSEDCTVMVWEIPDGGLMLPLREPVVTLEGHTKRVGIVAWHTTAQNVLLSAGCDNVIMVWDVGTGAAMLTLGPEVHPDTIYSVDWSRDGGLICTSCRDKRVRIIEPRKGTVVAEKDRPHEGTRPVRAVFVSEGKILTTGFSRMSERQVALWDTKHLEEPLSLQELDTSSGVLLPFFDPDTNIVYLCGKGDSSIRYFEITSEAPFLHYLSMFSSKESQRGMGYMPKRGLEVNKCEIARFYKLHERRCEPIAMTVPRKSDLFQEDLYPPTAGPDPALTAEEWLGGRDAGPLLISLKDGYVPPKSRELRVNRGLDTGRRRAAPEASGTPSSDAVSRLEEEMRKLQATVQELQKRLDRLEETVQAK
# UniProt Q5TDH0: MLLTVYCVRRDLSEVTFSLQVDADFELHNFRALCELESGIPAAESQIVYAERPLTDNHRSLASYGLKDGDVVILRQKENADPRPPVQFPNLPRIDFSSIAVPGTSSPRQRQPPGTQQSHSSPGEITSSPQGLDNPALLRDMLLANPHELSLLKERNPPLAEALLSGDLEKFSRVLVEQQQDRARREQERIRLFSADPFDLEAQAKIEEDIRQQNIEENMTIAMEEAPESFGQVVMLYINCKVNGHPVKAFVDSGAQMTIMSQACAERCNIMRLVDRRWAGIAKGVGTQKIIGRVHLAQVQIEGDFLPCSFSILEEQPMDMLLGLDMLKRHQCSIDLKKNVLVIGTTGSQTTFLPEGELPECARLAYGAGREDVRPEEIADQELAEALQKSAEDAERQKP
# UniProt P0CG13, whole entry: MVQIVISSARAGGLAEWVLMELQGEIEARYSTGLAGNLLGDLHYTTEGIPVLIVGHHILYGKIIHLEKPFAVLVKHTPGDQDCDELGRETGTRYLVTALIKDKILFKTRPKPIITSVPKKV
# UniProt Q7Z4W1: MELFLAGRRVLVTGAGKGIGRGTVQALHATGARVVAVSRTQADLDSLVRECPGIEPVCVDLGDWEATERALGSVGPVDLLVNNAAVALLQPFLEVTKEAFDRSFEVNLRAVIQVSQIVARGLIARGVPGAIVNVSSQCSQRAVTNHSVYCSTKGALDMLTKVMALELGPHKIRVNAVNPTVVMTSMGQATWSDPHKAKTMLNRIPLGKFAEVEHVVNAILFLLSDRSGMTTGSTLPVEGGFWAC
# UniProt Q7L1T6: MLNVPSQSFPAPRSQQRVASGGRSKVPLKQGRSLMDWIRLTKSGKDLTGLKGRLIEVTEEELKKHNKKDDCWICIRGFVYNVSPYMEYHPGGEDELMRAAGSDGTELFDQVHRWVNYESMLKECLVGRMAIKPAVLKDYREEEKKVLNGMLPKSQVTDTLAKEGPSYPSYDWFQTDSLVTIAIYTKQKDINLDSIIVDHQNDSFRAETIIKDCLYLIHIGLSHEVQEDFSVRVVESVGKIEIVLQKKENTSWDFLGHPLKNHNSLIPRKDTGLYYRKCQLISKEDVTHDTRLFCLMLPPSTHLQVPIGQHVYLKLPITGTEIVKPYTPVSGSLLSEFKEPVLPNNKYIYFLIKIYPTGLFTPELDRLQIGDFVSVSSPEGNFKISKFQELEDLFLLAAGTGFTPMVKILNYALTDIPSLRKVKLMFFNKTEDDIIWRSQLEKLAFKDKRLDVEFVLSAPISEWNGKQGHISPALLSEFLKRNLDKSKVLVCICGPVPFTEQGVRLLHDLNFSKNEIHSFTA
# UniProt P53634: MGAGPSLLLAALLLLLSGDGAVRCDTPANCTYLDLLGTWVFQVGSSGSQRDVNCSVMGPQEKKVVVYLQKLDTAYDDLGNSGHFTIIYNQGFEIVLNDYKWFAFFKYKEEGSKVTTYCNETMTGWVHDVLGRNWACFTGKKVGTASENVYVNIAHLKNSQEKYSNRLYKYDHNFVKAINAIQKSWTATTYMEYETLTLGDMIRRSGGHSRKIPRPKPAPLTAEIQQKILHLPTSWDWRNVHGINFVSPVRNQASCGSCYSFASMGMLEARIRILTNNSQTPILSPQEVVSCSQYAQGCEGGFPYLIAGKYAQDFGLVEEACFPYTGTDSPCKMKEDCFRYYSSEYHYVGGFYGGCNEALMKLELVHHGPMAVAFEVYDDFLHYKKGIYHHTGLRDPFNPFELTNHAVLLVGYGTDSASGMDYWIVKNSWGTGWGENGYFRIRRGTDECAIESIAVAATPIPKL
# UniProt Q8NCG7: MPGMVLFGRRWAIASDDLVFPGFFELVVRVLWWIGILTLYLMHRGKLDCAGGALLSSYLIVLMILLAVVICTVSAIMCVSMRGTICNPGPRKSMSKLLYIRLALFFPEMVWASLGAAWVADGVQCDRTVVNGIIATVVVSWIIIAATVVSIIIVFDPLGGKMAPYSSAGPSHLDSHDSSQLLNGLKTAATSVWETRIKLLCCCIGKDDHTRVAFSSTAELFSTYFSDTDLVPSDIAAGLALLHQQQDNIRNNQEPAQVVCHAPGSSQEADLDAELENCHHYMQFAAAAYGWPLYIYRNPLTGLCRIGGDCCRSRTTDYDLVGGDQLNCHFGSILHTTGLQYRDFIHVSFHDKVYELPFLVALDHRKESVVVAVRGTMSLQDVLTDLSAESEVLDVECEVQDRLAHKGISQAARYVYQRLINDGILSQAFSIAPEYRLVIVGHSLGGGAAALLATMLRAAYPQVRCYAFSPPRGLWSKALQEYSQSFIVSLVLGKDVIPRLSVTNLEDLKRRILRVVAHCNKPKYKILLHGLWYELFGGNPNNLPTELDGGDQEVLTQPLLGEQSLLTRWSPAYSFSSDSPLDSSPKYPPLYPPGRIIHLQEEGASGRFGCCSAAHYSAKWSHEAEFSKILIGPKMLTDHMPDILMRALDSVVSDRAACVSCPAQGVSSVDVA
# UniProt Q13620, whole entry: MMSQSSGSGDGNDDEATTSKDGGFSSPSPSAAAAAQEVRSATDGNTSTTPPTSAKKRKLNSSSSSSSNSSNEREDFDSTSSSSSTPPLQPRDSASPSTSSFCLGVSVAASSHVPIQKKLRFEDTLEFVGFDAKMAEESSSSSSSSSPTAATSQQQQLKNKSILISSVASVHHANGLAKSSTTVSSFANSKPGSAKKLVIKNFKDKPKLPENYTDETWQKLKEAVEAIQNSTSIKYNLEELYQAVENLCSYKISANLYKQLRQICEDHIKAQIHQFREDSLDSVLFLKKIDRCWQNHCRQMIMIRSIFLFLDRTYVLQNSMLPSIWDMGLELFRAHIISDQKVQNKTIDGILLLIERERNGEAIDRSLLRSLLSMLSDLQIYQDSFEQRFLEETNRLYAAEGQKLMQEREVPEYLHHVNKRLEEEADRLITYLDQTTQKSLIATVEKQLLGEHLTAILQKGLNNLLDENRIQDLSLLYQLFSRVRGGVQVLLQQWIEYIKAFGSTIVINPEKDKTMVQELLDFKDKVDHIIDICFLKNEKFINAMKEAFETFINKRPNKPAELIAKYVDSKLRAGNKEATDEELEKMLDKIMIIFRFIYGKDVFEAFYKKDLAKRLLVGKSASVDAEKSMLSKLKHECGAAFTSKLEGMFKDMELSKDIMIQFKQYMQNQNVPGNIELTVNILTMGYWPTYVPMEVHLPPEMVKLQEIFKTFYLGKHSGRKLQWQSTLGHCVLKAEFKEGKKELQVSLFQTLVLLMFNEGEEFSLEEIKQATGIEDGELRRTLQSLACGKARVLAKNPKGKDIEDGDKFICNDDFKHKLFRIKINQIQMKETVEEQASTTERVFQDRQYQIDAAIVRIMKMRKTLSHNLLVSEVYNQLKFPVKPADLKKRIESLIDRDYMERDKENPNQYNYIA
# UniProt Q15392: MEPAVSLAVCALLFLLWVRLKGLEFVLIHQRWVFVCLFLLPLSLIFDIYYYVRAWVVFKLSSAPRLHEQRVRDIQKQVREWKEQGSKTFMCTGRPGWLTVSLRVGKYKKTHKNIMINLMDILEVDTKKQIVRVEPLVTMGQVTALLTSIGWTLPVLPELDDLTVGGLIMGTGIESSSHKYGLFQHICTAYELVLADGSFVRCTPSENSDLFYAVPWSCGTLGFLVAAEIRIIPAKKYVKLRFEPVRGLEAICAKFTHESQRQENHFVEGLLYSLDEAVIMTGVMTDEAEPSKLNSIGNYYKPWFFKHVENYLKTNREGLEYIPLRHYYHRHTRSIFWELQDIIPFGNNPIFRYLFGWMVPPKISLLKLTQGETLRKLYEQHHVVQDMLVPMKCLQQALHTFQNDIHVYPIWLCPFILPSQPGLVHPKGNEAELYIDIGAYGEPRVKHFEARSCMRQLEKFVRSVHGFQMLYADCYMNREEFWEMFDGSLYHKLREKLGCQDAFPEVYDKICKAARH
# UniProt Q96SW2: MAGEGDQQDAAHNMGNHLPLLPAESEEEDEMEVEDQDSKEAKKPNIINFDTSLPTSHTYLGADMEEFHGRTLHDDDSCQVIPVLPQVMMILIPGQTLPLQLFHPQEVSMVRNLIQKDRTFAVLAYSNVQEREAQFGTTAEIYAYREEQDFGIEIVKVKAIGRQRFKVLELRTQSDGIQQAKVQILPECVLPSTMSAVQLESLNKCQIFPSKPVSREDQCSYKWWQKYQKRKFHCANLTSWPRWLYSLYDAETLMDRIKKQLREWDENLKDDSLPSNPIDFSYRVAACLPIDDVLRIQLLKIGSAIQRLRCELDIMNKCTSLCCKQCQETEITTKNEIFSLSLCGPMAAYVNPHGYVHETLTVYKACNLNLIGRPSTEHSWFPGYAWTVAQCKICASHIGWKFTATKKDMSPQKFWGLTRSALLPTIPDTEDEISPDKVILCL
# UniProt Q99627: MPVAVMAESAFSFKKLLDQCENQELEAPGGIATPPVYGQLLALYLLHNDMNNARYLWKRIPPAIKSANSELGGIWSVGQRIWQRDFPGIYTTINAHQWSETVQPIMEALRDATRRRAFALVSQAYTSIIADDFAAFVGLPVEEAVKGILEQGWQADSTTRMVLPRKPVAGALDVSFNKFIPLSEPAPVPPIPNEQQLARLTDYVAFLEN
# UniProt Q9GZP9: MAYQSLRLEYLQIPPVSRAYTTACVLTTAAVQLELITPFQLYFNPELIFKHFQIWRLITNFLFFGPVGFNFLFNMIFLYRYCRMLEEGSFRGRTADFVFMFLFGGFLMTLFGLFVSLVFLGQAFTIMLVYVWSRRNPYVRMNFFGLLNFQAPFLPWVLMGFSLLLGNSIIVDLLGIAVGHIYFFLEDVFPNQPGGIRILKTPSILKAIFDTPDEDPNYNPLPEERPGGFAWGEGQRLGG
# The list shows a part of the results.
# Compound: COc1ccc(Cn2ccc3ccc(C(=O)NO)cc32)cc1
# Test: dose-dependent thermal stabilisation call (2D-TPP, DLPTP, 10% FDR) (binary (1 = stabilised)); higher = stabilised by the compound
# Conditions: system: HL-60 intact cells; concentration range 0.04-10 µM
row,Target,dose-dependent thermal stabilisation call
1,CSE1L (UniProt P55060),inactive: 0
2,DECR1 (UniProt Q16698),inactive: 0
3,CXORF38 (UniProt Q8TB03),inactive: 0
4,CORO1A (UniProt P31146),inactive: 0
5,CS (UniProt O75390),inactive: 0
6,CUL2 (UniProt Q13617),inactive: 0
7,DCUN1D5 (UniProt Q9BTE7),inactive: 0
8,DDI2 (UniProt Q5TDH0),inactive: 0
9,DCD (UniProt P81605),inactive: 0
10,CPS1 (UniProt P31327),inactive: 0
11,DHX57 (UniProt Q6P158),inactive: 0
12,CTF8 (UniProt P0CG13),inactive: 0
13,DCXR (UniProt Q7Z4W1),inactive: 0
14,CYB5R4 (UniProt Q7L1T6),inactive: 0
15,CSNK1A1 (UniProt P48729),inactive: 0
16,CPD (UniProt O75976),inactive: 0
17,DHX34 (UniProt Q14147),inactive: 0
18,DHX8 (UniProt Q14562),inactive: 0
19,DGKH (UniProt Q86XP1),inactive: 0

row,Target,dose-dependent thermal stabilisation call
1,CTSC (UniProt P53634),inactive: 0
2,CSGLCA-T,inactive: 0
3,DIAPH1 (UniProt O60610),inactive: 0
4,DAGLB (UniProt Q8NCG7),inactive: 0
5,DHX37 (UniProt Q8IY37),inactive: 0
6,CSTA (UniProt P01040),inactive: 0
7,DAP3 (UniProt P51398),inactive: 0
8,CUL4B (UniProt Q13620),inactive: 0
9,COMMD5 (UniProt Q9GZQ3),inactive: 0
10,CUGBP1 (UniProt Q92879),inactive: 0
11,DCTN3 (UniProt O75935),active: 1
12,DHCR24 (UniProt Q15392),inactive: 0
13,CRBN (UniProt Q96SW2),inactive: 0
14,COPS8 (UniProt Q99627),inactive: 0
15,DFFA (UniProt O00273),inactive: 0
16,DCP2 (UniProt Q8IU60),inactive: 0
17,DHX36 (UniProt Q9H2U1),inactive: 0
18,CPSF4 (UniProt O95639),inactive: 0
19,DERL2 (UniProt Q9GZP9),inactive: 0

# Copied from the list:
# dose-dependent thermal stabilisation call, CSGLCA-T reads inactive: 0
# dose-dependent thermal stabilisation call, COMMD5 (UniProt Q9GZQ3) reads inactive: 0
# dose-dependent thermal stabilisation call, COPS8 (UniProt Q99627) reads inactive: 0
